For the series, the target named is PTBP1 (Homo sapiens) (UniProt P26599). The series can be described thus: EMSA. The note with it: 0-5 ug PTBP1, 20 pmol RNA, EMSA: 20 mM sodium phosphate pH 7.7, 500 mM NaCl, 20 mM imidazole, 1 mM DTT, 0.1x protease inhibitor, 10 U RNase inhibitor, 15 uL, 28 C, 30 min, 5% TBE-PAGE, recombinant protein, protein details: His tag (pET28a, HisTrap purified), label: 5' 32P, letters put together from the description. In general terms: In EMSA bound probe runs differently from free probe, usually more slowly.

Protein sequences, listed by entry. Tags and fused reporters are not part of them. Lines headed by an entry give the natural chain unless they say otherwise; changes in a name come on top.
UniProt P26599: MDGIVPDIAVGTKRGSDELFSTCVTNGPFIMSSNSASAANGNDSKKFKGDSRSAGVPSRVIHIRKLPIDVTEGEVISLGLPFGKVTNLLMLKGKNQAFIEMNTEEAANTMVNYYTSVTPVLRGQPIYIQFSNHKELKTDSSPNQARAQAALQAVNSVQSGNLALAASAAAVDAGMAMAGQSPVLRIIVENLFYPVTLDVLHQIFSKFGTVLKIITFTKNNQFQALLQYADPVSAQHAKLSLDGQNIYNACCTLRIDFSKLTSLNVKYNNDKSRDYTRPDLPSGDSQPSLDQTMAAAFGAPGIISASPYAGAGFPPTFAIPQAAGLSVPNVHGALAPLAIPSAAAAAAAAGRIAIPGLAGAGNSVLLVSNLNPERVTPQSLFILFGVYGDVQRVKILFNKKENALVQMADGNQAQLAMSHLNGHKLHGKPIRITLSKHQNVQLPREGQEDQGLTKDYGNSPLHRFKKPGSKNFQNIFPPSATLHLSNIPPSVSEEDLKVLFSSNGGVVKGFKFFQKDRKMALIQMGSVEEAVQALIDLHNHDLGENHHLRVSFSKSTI

For at least one entry, the source does not settle the construct or the ends of the probe. Weaker means in comparison with the reference protein, sequence or condition of that experiment. At least one verdict rests on a figure or table, not on a statement of the authors.

In the case of “GGGCUUCCCAUUUAUCUAUCUCUAUUUA [UBE2E3 C allele RNA]”, for the setting “preferred allele (eCLIP C:21 G:2)”, the binding result is listed as “binds”.

For “GGGAGUUAAGGACAUAGAAUUGGUCAUG [NACA A allele RNA (oligo T7FwT)]”, for the setting “weaker than U allele”, the binding result is recorded as “binds more weakly”. Consider “GGGAGUUAAGGACAUUGAAUUGGUCAUG [NACA U allele RNA (oligo T7FwA)]”, for which the binding result (preferred allele (eCLIP U:21 A:0)) is reported as “binds”. Turning to “GGGCUUCCCAUUUAUGUAUCUCUAUUUA [UBE2E3 G allele RNA]”, the binding result (weaker than C allele) is listed as “binds more weakly”.

Consider “GGGGUAUGGCAUUGUGUCUUCUUUCCAU [CDC7 G allele RNA]”, for which the binding result (weaker than A allele) is “binds more weakly”.

As to “GGGGUAUGGCAUUGUAUCUUCUUUCCAU [CDC7 A allele RNA]”, the binding result (preferred allele (eCLIP G:0 A:22)) is “binds”.

Values taken from paper PMC6430814.
